The numbers were not newly measured in PMC2597681 (Biochemistry, 2008), which cites them from elsewhere.

Chains of the proteins cited; added tags and fusions are not shown. Residues count along the entry.
UniProt P03887, whole entry: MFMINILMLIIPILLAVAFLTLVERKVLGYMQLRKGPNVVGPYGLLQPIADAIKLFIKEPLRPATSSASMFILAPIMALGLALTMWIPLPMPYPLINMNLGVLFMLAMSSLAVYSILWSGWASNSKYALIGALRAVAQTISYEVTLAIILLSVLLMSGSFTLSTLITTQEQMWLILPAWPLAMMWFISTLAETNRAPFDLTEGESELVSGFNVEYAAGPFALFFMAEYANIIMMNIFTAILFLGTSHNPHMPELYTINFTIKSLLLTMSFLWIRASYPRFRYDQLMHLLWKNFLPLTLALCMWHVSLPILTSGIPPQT
UniProt P17694, 34-463: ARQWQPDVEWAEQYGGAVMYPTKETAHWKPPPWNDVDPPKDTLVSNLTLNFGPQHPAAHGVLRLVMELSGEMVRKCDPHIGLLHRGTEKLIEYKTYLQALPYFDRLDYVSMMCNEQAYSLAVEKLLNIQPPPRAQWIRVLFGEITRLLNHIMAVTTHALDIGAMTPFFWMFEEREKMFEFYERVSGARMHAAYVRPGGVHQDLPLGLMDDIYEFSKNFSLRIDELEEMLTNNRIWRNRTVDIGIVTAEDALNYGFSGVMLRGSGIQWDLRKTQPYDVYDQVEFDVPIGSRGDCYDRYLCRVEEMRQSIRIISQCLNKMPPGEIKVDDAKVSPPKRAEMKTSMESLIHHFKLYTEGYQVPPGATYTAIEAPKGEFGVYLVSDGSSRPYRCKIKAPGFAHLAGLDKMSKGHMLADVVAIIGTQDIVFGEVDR

The data set addresses ND1 subunit (Bos taurus, UniProt P03887+P17694). The settings on record: ref [19]; cited from earlier work.

Each structure is given as a SMILES string.

Regarding `C=C(C)[C@H]1Cc2c(ccc3c2O[C@@H]2COc4cc(OC)c(OC)cc4[C@@H]2C3=O)O1` [rotenone], the “Suppression of specific binding of [125I]TDA to ND1 (in words)” value is on record as “completely suppress”.
